Hit rate of the full screen: of about 320,000 compounds, about 2,100 (0.66%) were called active. The inconclusive results got no clear call from the source; some entries with a clear call stand among them for comparison. The call rests on the fitted dose curve; in most records, active means well fitted inhibition curve with a large enough effect in the signal ratio, with a control signal flat (not every such curve was filed as active); inconclusive means small, poorly fitted or top-dose-only effect, or effect the other way, or a change in a side signal; inactive means flat fitted curve, though single readings scatter; the % refers to the signal ratio. A potency beside an inconclusive call is a rough fit, not a confirmed value.
Test: qHTS Assay for Lipid Storage Modulators in Drosophila S3 Cells
Conditions: BODIPY lipid droplet fluorescence, 18-24 h, cells fed with added oleic acid; lipid storage change, negative = inhibition: at 46.1 µM (top of the series) unless noted
Procedure, shortened: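 Drosophila S3 cells loaded with oleic acid (400 uM, as added) and compounds at several concentrations; lipid droplets imaged by 488-nm laser-scanning cytometry, 500–530 nm intensity and object ratio to cell channel. Percent activity normalized to 20 uM Triacsin C.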
On the % scale 0 is the no-effect control and ±100 the full control effect; potency means the concentration at half of the fitted maximal effect.

Row | Compound | lipid storage change, negative = inhibition | Potency
1 | Cc1ccccc1NC(=O)c1ccno1 | inconclusive: 126% | 
2 | Cn1ccs/c1=N\S(=O)(=O)c1ccc(C(C)(C)C)cc1 |  | active: 16.4 µM
3 | CCO[C@@H]1OC(C(=O)NCc2ccccc2)=C[C@H](C(C)(C)C)[C@H]1CCCO | inconclusive: 7.4% | 
4 | COc1cccc(C(=O)NCc2ccc3c(c2)OCO3)c1 |  | inconclusive: 23.1 µM [activator, single point]
5 | CC(C)Cc1n[nH]c(=O)c2c1nnn2Cc1ccccc1F | inconclusive: 35.8% | 
6 | COc1ccc(-c2nn(CC(=O)NCCc3ccccc3)c(=S)n2C)cc1 | inconclusive: 17.8% | 
7 | COc1ccc(/C(O)=C2\C(=O)C(=O)N(c3cc(C)on3)C2c2cccc(OC)c2OC)cc1C (configuration not stated) | inconclusive: 11.2% | 
8 | Cc1nc(N(C)Cc2ccccc2)c2c(C)c(C)sc2n1 |  | inconclusive: 6.51 µM [falling, single point]
9 | O=C(CN1CCN(c2ccccc2O)CC1)NC(=O)NCc1ccccc1 | inconclusive: 33.3% | 
10 | CCOC(=O)C1CCCN(C(=O)/C=C/c2ccccc2[N+](=O)[O-])C1 (configuration not stated) |  | inconclusive: 3.66 µM [falling, single point]
11 | Cc1ccc(N(CC(=O)NCC2CCCO2)C(=O)CNS(=O)(=O)c2ccc(Cl)cc2)cc1 (configuration not stated) | inconclusive: 34.1% | 
12 | CCC1CCC(C(=O)NNC(=O)c2cc(-c3ccco3)[nH]n2)CC1 (configuration not stated) | inconclusive: 8.49% | 
13 | O=C(c1ccc(C(F)(F)F)cc1)C1CCCN(C(=O)CCn2cncn2)C1 (configuration not stated) | inconclusive: -136% | 
14 | COc1ccc(N(C)S(=O)(=O)c2ccc3c(c2)CC(C)N3C(=O)C2CC2)c(OC)c1 (configuration not stated) |  | inconclusive: 29.1 µM [falling, single point]
15 | NC(=O)C1CCCCc2c1[nH]c1ccc(Cl)cc21 (configuration not stated) | inconclusive: -43.6% | 
16 | O=C(COC(=O)c1cc(S(=O)(=O)N2CCCCC2)ccc1N1CCOCC1)c1ccccc1 | inconclusive: -49.5% | 
17 | c1ccc(-c2cc(-c3ccccc3)n3ncnc3n2)cc1 | inconclusive: -0.742% | 
18 | COC(OC)c1nc(SCC(=O)Nc2cccc(Cl)c2)ncc1C(=O)O |  | inconclusive: 29.1 µM [falling, single point]
19 | COc1cccc(C(=O)N2CCCN(C)CC2)c1OC | inconclusive: 23.2% | 
20 | COCCNC(=O)C1CCCN(S(=O)(=O)c2ccc3c(c2)CC(C)N3C(=O)C2CC2)C1 (configuration not stated) |  | inconclusive: 0.0651 µM [activator, full curve, poor fit]
21 | Cc1cc2oc(=O)cc(CN3CCCCC3C)c2c(C)c1Cl (configuration not stated) | inconclusive: -23.8% | 
22 | CCn1nc(C)c(CNC(=O)c2cc(COc3ccc(F)cc3Cl)on2)c1C |  | inconclusive: 1.03 µM [falling, full curve, poor fit]
23 | CCNC(=O)NC(=O)C(C)OC(=O)CCCc1nc2ccccc2s1 (configuration not stated) | inactive | 
24 | COC(=O)c1cc(C)sc1NC(=O)CCCC(=O)O |  | inconclusive: 0.184 µM [activator, full curve, poor fit]

Row | Compound | lipid storage change, negative = inhibition | Potency
25 | CCOc1cccc(OCCCNCCCOC)c1 | inconclusive: 42.8% | 
26 | O=C(NCCCN1CCCCC1)C1CCC(=O)N1CCc1ccccc1 (configuration not stated) | inconclusive: 6.12% | 
27 | COc1cc(C(=O)NNC(=O)COc2ccc(C)cc2)ccc1OCC(=O)N1CCOCC1 |  | inconclusive: 6.51 µM [falling, single point]
28 | O=C(CSc1n[nH]c(-c2cccs2)n1)N1CCCCC1 | inconclusive: 16.5% | 
29 | Cn1c(CN2CCOCC2)nnc1SCC(=O)Nc1nccs1 | inconclusive: -59.1% | 
30 | Cn1c(SCC(=O)Nc2ccc3c(c2)n(C)c(=O)n3C)nnc1-c1ccncc1 |  | inconclusive: 20.6 µM [activator, single point]
31 | O=C(CSc1ccccc1C(=O)NCc1ccccc1)NC12CC3CC(CC(C3)C1)C2 |  | inconclusive: 16.4 µM [cytotoxic, partial curve]
32 | COc1cc(-c2nnc(COc3ccc4cc(Br)ccc4c3)o2)cc(OC)c1OC |  | inconclusive: 6.51 µM [activator, partial curve]
33 | COC(=O)c1cc(S(=O)(=O)NCC(C)c2ccccc2)cn1C (configuration not stated) | inconclusive: -35.3% | 
34 | COc1ccccc1NC1=C(Cl)C(=O)N(c2ccccc2)C1=O | inconclusive: -6% | 
35 | CCOc1ccc(N(CC(=O)NN=C2CCN(C)CC2)S(=O)(=O)c2ccc(Br)cc2)cc1 |  | inconclusive: 0.731 µM [activator, single point]
36 | O=C(CSc1nc2ccccc2[nH]1)N1CCN(c2ccc(F)cc2)CC1 |  | inconclusive: 1.84 µM [activator, partial curve, poor fit]
37 | COCCNC(=O)C1CC(=O)N(C2CCCCC2)C1 (configuration not stated) | inconclusive: 9.3% | 
38 | OCC1OC(n2cnc3c(NC4CCCCC4)ncnc32)C(O)C1O (configuration not stated) | inconclusive: -3.76% | 
39 | Cc1ccc(-c2nnc(SCC(=O)NCCN3C(=O)CSC3=O)n2C)cc1 |  | inconclusive: 0.146 µM [falling, full curve, poor fit]
40 | Cc1cc(/C=C2/C(=O)N(C)C(=S)N2C)c(C)n1C1CC1 | inconclusive: -15.6% | 
41 | CC(=O)OC1COC(N2CCc3cc(Br)c([N+](=O)[O-])cc32)C(OC(C)=O)C1OC(C)=O (configuration not stated) |  | inconclusive: 0.651 µM [activator, single point]
42 | CCCn1c(-c2ccc(OC)cc2)nc2c(=O)n(C)c(=O)[nH]c21 |  | active: 29.1 µM
43 | C/C(=N\Nc1nc(C)cc(C)n1)c1ccc(N2CCOCC2)cc1 | inconclusive: 3.76% | 
44 | N#CCC(=O)Nc1ccc(C(=O)OCC(=O)NCc2ccc3c(c2)OCO3)cc1 |  | inconclusive: 1.84 µM [activator, partial curve]
45 | Cc1c(NC(=O)Cn2nc(C(=O)O)c3ccccc3c2=O)c(=O)n(-c2ccccc2)n1C | inconclusive: -25.4% | 
46 | CC1(C)Cc2c(c(N3CCOCC3)nc3sc(C(=O)Nc4ccc(Cl)cc4)c(N)c23)CO1 | inconclusive: -113% | 
47 | COc1ccc(CCNC(=O)c2cc(C3CC3)nc3c2cnn3C(C)C)cc1OC |  | inconclusive: 14.6 µM [falling, partial curve, poor fit]

One compound at a time, as listed above:
Cn1c(CN2CCOCC2)nnc1SCC(=O)Nc1nccs1 in the list: lipid storage change, negative = inhibition: inconclusive: -59.1%
COc1cccc(C(=O)NCc2ccc3c(c2)OCO3)c1 in the list: Potency: inconclusive: 23.1 µM [activator, single point]
COc1ccc(/C(O)=C2\C(=O)C(=O)N(c3cc(C)on3)C2c2cccc(OC)c2OC)cc1C (configuration not stated) in the list: lipid storage change, negative = inhibition: inconclusive: 11.2%
